Laboratory results reported in the supplement of paper PMC8256030.
Values joined by “and” are separate entries in the source; they are usually repeats but may differ in a detail not shown here. Identical values can stand only once. The list shows a part of the results. This data set is noisy: repeats of one test often differ as much as different tests do.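 HEK293T cells were given each compound shortly before transfection with a reporter in which red mCherry is followed by the SARS-CoV-2 frameshift element and then GFP in the −1 frame, so GFP appears only after frameshifting.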

Tested on: HEK293T
Assay: percent viability (nuclei count) relative to control; higher = more viable cells
Conditions: 10 µM; 24 h

With CCCC(=O)c1ccc2c(c1)N(CCCN1CCN(C)CC1)c1ccccc1S2 [butaperazine] as the molecule, how does the percent viability read?
The percent viability was 376%.

Cc1ccnc(NC(=O)C(C)c2cccc(C(=O)c3ccccc3)c2)c1 (stereo unspecified) [piketoprofen] was tested. Which percent viability did it give?
The percent viability was 192%.

How did the percent viability turn out when COC(=O)CCNC(=O)[C@@H]1CSC(C)N1 (stereo partly specified) [alonacic] was run?
The percent viability was 224%.

How did the percent viability turn out when CN1CCC(CN2c3ccccc3Sc3ccccc32)C1 (stereo unspecified) [methdilazine] was run?
The percent viability was 446%.

CCCCCc1ccc(C)cc1O [amylmetacresol] was tested. Which percent viability did it give?
The percent viability was 192%.

Which percent viability does the source give for CO[C@H]1C[C@H](O[C@@H]2/C(C)=C/C[C@@H]3C[C@@H](C[C@]4(CC[C@H](C)[C@@H](C5CCCCC5)O4)O3)OC(=O)[C@@H]3C=C(C)/C(=N/O)[C@H]4OC/C(=C\C=C\[C@@H]2C)[C@]43O)O[C@@H](C)[C@@H]1O here?
The percent viability was 355%.

For CCCCS(=O)(=O)N[C@@H](Cc1ccc(OCCCCC2CCNCC2)cc1)C(=O)O [tirofiban], which percent viability is on record?
The percent viability was 273%.

How did the percent viability turn out when NC(=O)C1=C(O)[C@@]2(O)C(=O)C3=C(O)c4c(O)cccc4C[C@H]3C[C@H]2CC1=O [incyclinide] was run?
Its percent viability is 20.7%.

Which percent viability does the source give for COc1ccc2nc3cc(Cl)ccc3c(Nc3cc(CN4CCCC4)c(O)c(CN4CCCC4)c3)c2n1 [pyronaridine] here?
Its percent viability is 26.2%.

C[N+](C)(C)CCOP(=O)(O)OC[C@H](O)CO [choline alfoscerate] was tested. Which percent viability did it give?
The percent viability was 259%.

With CSCC[C@H](NC(=O)[C@H](Cc1c[nH]c2ccccc12)NC(=O)CCNC(=O)OC(C)(C)C)C(=O)N[C@@H](CC(=O)O)C(=O)N[C@@H](Cc1ccccc1)C(N)=O as the molecule, how does the percent viability read?
The percent viability was 324%.

How did the percent viability turn out when C#C[C@]1(O)CC[C@H]2[C@@H]3CCC4=CC(=O)CC[C@@H]4[C@H]3C(=C)C[C@@]21CC [etonogestrel] was run?
Its percent viability is 247%.

With CCOC(=O)[C@H]1O[C@@H]1C(=O)N[C@@H](CC(C)C)C(=O)NCCC(C)C [aloxistatin] as the molecule, how does the percent viability read?
Its percent viability is 206%.

With O=C(O)CCC(=O)O [Katasuccin] as the molecule, how does the percent viability read?
The percent viability was 239%.

For CN1N=C(C(N)=O)CCC1=O [medazomide], which percent viability is on record?
Its percent viability is 49.9%.

Which percent viability does the source give for O=C(O)c1ccccc1-c1ccc(C(F)(F)F)cc1 [xenalipin] here?
The percent viability was 92.2%.

For CC(C(=O)O)c1ccc2c(c1)CC(C(C)C)C2 (stereo unspecified) [isoprofen], which percent viability is on record?
The percent viability was 178%.

For C[C@]12CC[C@H]3[C@@H](CCC4=CC(=O)CC[C@@]43C)[C@@H]1CC[C@@H]2C(=O)CO [desoxycortone], which percent viability is on record?
The percent viability was 154%.

For CNC[C@H](O)c1ccc(O)c(O)c1 [epinephrine], which percent viability is on record?
Its percent viability is 181%.

Which percent viability does the source give for CC(C)[C@@H]1NC(=O)[C@H](CCCCN)NC(=O)[C@@H](Cc2c[nH]c3ccccc23)NC(=O)[C@H](Cc2ccc(O)cc2)NC(=O)[C@H](C)N(C)C(=O)[C@H](Cc2ccccc2)NC1=O [seglitide] here?
Its percent viability is 187%.

CC(C(=O)O)c1ccc(CC2CCCC2=O)cc1 (stereo unspecified) [loxoprofen] was tested. Which percent viability did it give?
The percent viability was 92.5%.

For Cc1c(C(=O)NCCO)[n+]([O-])c2ccccc2[n+]1[O-] [olaquindox], which percent viability is on record?
The percent viability was 38.8%.

How did the percent viability turn out when CCC(=O)c1ccc(O)cc1 [paroxypropione] was run?
Its percent viability is 292%.

How did the percent viability turn out when Cc1c(Cl)cccc1Nc1ccccc1C(=O)O [tolfenamic acid] was run?
Its percent viability is 314% and 141%.

How did the percent viability turn out when CC(C)(C)NCC(O)COc1cccc2c1C[C@H](O)[C@H](O)C2 (stereo partly specified) was run?
Its percent viability is 254%.

CN1CCN(CCCN2c3ccccc3Sc3ccc(Cl)cc32)CC1 [prochlorperazine] was tested. Which percent viability did it give?
The percent viability was 360%.

NC(CO)(CO)CO [trometamol] was tested. Which percent viability did it give?
The percent viability was 168%.

Which percent viability does the source give for Nc1ccn([C@H]2CC[C@@H](CO)O2)c(=O)n1 [zalcitabine] here?
Its percent viability is 218% and 239%.

Which percent viability does the source give for Nc1ccc(S(=O)(=O)Nc2ccc(Cl)nn2)cc1 [sulfachlorpyridazine] here?
Its percent viability is 162%.

Which percent viability does the source give for Nc1nc2ccc(OC(F)(F)F)cc2s1 [riluzole] here?
The percent viability was 113%.

For CCN1CCCC(OC(=O)C(c2ccccc2)c2ccccc2)C1 (stereo unspecified), which percent viability is on record?
Its percent viability is 434%.
